The text below walks through data of paper PMC2655719.

Chains of the proteins cited; added tags and fusions are not shown. Lines headed by an entry give the natural chain unless they say otherwise; changes in a name come on top.
UniProt P61225: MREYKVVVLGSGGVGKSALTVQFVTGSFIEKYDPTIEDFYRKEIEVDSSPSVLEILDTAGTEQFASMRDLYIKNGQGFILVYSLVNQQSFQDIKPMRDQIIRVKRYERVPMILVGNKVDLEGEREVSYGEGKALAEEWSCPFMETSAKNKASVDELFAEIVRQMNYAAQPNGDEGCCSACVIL
UniProt P10114: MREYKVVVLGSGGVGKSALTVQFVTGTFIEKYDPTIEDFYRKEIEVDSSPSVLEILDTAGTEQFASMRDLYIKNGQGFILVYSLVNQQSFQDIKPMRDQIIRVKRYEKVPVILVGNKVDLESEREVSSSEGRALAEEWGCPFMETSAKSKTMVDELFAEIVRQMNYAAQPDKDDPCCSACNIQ
UniProt P62834: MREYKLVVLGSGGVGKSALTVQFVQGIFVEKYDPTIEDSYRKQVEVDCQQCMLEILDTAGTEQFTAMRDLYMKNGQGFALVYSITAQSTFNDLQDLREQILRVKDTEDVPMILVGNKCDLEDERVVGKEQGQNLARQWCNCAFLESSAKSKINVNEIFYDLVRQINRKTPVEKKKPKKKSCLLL
UniProt P61224: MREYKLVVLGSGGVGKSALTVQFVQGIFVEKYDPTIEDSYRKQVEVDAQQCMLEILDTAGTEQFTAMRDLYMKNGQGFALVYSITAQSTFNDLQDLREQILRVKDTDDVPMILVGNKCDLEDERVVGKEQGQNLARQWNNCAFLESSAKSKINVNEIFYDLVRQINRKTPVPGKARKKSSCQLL

These are yes or no findings as the source states them, for the method shown. In cells and extracts the contact can be indirect. For some of these results: A result given as binding can be weak or reduced; the word gives no strength. For some of these results: Sequences can lack the tags named with a protein.

In assay [1] the target is T1, full-length myc-RGS14 (rat) (UniProt O08773).
T1 sequence: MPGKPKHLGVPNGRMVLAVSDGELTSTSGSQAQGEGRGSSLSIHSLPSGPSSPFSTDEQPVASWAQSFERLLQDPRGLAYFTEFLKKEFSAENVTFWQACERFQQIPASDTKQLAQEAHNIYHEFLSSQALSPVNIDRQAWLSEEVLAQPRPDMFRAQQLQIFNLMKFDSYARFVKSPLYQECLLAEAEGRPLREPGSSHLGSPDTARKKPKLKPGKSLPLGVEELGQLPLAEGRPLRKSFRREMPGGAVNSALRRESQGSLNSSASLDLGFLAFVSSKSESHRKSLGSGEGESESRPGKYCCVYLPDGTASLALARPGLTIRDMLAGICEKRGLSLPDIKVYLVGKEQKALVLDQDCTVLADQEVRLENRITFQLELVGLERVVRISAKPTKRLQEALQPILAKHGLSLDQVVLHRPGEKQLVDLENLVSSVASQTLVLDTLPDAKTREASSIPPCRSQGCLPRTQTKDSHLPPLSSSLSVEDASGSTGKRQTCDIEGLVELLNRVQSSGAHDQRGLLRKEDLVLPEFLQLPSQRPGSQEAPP
The assay can be described thus: co-IP; HEK293T cells co-transfected with myc-RGS14 and one partner; lysates immunoprecipitated with anti-myc overnight at 4°C, protein A/G agarose; buffers with 20 mM MgCl2; immunoblot. (A western blot detects proteins with antibodies after separation by electrophoresis.)

Assay [2] addresses T2, GST-RGS14-His6 (full-length RGS14) (UniProt O08773).
T2 sequence: T1 sequence
The assay can be described thus: pull-down; 500 pmol purified GST-fusion protein added to pre-cleared lysate of HEK293T cells transfected with the GTPase, overnight at 4°C; precipitated with glutathione agarose; 20 mM TRIS/HCl pH 7.5, 100 mM NaCl, 20 mM MgCl2, 1 mM EGTA, 1% Triton X-100; immunoblot; only the target purified.

Assay [3] has as its target T3, RGS14-YFPC (UniProt O08773).
T3 sequence: T1 sequence
Briefly: split reporter; YFP bimolecular fluorescence complementation in HEK293T cells co-transfected with YFPN and YFPC fusions; epifluorescence microscopy 48 h after transfection, percent of fluorescent pixels.

With “FLAG-tagged mutationally-activated (GV) Rap2B (from UniProt P61225)”, the binding result in assay [1] is on record as “no binding”; in assay [2], “binds”.
On to “HA-tagged mutationally-activated (GV) Rap2A (from UniProt P10114)”, for which, in assay [2], the binding entry is listed as “binds”.
Regarding “YFPN alone (N-terminal fragment of Yellow Fluorescent Protein, amino acids 1-159) (domain or fragment)”, the binding entry in assay [3] is on record as “no binding”.
For “mutationally activated Rap1A (from UniProt P62834)”, the binding result in assay [1] was “no binding”.
As to “mutationally activated Rap1B (from UniProt P61224)”, in assay [1], the binding entry was “no binding”.
Regarding “untagged activated (GV) Rap2A (from UniProt P10114)”, in assay [1], the binding result is “no binding”.
